Test results published in paper PMC4884786.
These are yes or no findings as the source states them, for the method shown. Binding seen in cells or lysates may run through a third protein.

Amino acid sequences for entries named in this document (tags omitted). A change or cut given only in a name is not applied to a line headed by its entry.
UniProt Q9UF56: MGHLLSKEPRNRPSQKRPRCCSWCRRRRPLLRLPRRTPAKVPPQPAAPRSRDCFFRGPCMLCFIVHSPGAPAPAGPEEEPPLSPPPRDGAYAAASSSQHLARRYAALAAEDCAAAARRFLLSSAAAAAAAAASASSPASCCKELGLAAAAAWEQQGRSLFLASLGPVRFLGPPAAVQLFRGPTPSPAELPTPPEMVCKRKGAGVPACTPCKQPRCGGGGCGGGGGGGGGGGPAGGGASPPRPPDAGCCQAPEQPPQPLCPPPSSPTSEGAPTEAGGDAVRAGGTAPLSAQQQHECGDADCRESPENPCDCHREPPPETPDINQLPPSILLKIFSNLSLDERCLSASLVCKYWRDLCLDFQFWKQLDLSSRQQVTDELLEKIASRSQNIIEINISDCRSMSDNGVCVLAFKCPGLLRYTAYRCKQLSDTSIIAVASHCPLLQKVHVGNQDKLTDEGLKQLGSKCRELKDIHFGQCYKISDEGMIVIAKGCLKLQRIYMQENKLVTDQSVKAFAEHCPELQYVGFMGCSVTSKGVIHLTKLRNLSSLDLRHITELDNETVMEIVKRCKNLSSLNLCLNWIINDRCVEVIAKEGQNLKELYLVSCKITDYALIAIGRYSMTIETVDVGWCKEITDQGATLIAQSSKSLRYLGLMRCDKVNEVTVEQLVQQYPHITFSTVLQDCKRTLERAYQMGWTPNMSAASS
UniProt P63208: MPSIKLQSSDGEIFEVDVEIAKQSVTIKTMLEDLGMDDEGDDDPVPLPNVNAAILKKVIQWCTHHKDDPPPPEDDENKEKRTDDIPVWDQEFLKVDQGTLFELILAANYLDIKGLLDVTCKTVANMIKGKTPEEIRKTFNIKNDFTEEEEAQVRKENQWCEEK

Molecular target: Myc‐tagged Fbxl17 lacking the F‐box domain (UniProt Q9UF56)
Test: co-IP; Myc‐tagged Fbxl17‐truncated fragments immunoprecipitated from HEK293T cells treated with MLN4924 (2 μM, 5 h); endogenous Sufu and Skp1 detected

binding: no binding
Substance: Skp1 (S‐phase kinase‐associated protein 1) (from UniProt P63208 1-163)
